# From US20250312499A1, “KISSPEPTIN RECEPTOR (KISS1R) TARGETED THERAPEUTICS AND USES THEREOF” (priority 2024, published 2025)
# Chains of the proteins cited; added tags and fusions are not shown.
# UniProt Q969F8, whole entry: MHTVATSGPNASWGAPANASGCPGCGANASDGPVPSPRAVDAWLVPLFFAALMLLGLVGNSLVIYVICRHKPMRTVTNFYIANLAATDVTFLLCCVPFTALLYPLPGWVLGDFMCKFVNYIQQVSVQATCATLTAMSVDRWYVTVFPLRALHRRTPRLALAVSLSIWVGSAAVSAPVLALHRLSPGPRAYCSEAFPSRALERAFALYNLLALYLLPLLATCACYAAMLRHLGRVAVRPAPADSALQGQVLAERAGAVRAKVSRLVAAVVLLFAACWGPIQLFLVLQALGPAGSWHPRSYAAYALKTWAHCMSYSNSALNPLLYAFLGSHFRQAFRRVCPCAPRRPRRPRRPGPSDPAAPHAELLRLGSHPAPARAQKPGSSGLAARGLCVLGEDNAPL
# At least one structure is not confirmed: it was looked up by name or label, or the drawing left a doubt. Numbered stars: 1 amine (or outer) side, 2 acyl side, 3 side chain; on linkers, the order of the positions; unused ones are H or OH. Square brackets hold non-standard residues; d marks the D form. Peptide text beside a SMILES is read from it. * marks the point of attachment. ξ: configuration not given here. X17 = CSCC[C@H](NC(=O)c1ccc(CNC(=O)CN2CCN(CC(=O)O)CCN(CC(=O)O)CCN(CC(=O)O)CC2)cc1)C(=O)N[C@H](C(=O)N[C@@H](CCCCNC(=O)CCCCC(=O)*)C(=O)O)C(C)C; X12 = CSCC[C@H](NC(=O)CN1CCN(CC(=O)O)CCN(CC(=O)O)CCN(CC(=O)O)CC1)C(=O)N[C@H](C(=O)N[C@@H](CCCCNC(=O)CCCCC(=O)*)C(=O)O)C(C)C; DOTA = O=C(O)CN1CCN(CC(=O)O)CCN(CC(=O)*)CCN(CC(=O)O)CC1; Gly(N-(3-F-4-Me-benzyl)) = Cc1ccc(CNCC(=O)*)cc1F; Api(1-amidino) = N=C(N)N1CCC(N)(C(=O)O)CC1; Phe(3-F) = N[C@@H](Cc1cccc(F)c1)C(=O)O; 2Nal = N[C@@H](Cc1ccc2ccccc2c1)C(=O)O; Trx = NC[C@H]1CC[C@H](C(=O)O)CC1; X1 = O=C(CN1CCC(N[*:1])CC1)[*:2]; 4Pal = N[C@@H](Cc1ccncc1)C(=O)O; dHyp = O=C(O)[C@H]1C[C@H](O)CN1; ξβ3hD = NC(CC(=O)O)CC(=O)O; 4Amb = NCc1ccc(C(=O)O)cc1; Octanoyl = CCCCCCCC(=O)*; Api = NC1(C(=O)O)CCNCC1; Ahx = NCCCCCC(=O)O; azaGly = NNC(=O)O; Sar = CNCC(=O)O
# Target: human kisspeptin receptor (Homo sapiens (Human), UniProt Q969F8)
# Experiment: Human KISS1R binding assay (membrane competition binding)
# Conditions: 90 min at room temperature, competition with 0.2 nM [125I]-metastin (45-54), Flp-In T-Rex 293 kisspeptin membranes, metal complexes nonradioactive Ga, Lu, read-out: hKiSSR Binding Ki (90 min)
# Procedure: Crude membrane fractions are prepared from Flp-In T-Rex 293 (Thermo Fisher) cell line expressing the human kisspeptin receptor. The cells are grown to 85-100% confluence on standard tissue culture dishes in Dulbecco's Modified Eagles Medium (DMEM) (Corning) supplemented with 10% FBS (Gemini), 1% penicillin-streptomycin-glutamine (Gibco), 500 μg/mL hygromycin, and 15 μg/mL blastacidin. 48 hrs prior to preparing membranes 10 μg/ml of tetracycline is added to the culture media to induce receptor expression. To prepare membranes, cells are scraped and collected in 1× Dulbecco's phosphate buffered saline (Corning) and then pelleted at 1000 RPMs. The cell pellet is reconstituted in membrane preparation buffer (20 mM HEPES, 6 mM MgCl2 and 1 mM EGTA, protease inhibitor tablets (Pierce), pH 7.4) and placed in a cell disruption vessel (Parr Instrument company) at 1000 PSI for 30 min on ice. The pressurized contents are then released and spun down at 1000 RPMs and the supernatant is collected and further centrifuged at 15,000 RPMs to pellet the membranes. The membrane pellet is resuspended in membrane preparation buffer, snap frozen and stored at −80° C. for later use.
# The human kisspeptin membrane binding assay utilizes the following components: radiolabel [^125I]-metastin (45-54) (human) (Perkinhmer), crude Flp-In T-Rex 293 kisspeptin membranes, and competing small molecule and peptide ligands. The assay is initiated by combining in assay buffer (50 mM TrisHCl, 5 mM MgCl2, 2 mM EGTA, 10 mM CaCl2, 0.1% BSA, pH 7.4) a dose response of competing ligand (final concentrations are typically 0-10,000 nM), 5-10 μg of Flp-In T-Rex 293 kisspeptin membranes, and 0.2 n M [^125I]-metastin (45-54) in a 96-well assay plate and allowed to incubate 90 minutes at room temperature. Assay contents are then filtered through unifilter CF/C: microplates (PerkinElmer) pre-soaked with 0.5% BSA and washed with 9×400 μL of cold wash buffer (10 mM HEPES, 500 mM NaCl, 0.1% Tween-20, pH7.4). Assay plates are read using a Microbeta^2 (PerkinElmer) and Ki values for compounds are determined using a GraphPad Prism 9.3 non-linear regression analysis.
row,SMILES,Ki [nM]
1,Cc1ccc(CNCC(=O)N2CCC(NC(=O)[C@H](CC(C)C)NC(=O)NNC(=O)[C@H](Cc3ccccc3)NC(=O)[C@@H](CC(N)=O)NC(=O)[C@@H](CCCCN)NC(=O)CN3CCN(CC(=O)O)CCN(CC(=O)O)CCN(CC(=O)O)CC3)(C(=O)N[C@@H](Cc3c[nH]c4ccccc34)C(N)=O)CC2)cc1F [Compound 19] ({DOTA}-[dK][dN]F[azaGly]L[Api](Gly(N-(3-F-4-Me-benzyl)))W-NH2; N-terminus and C-terminus assumed),10 to 100
2,Cc1ccc(CNCC(=O)N2CCC(NC(=O)[C@H](CC(C)C)NC(=O)NNC(=O)[C@H](Cc3cccc(F)c3)NC(=O)[C@@H](NC(=O)[C@H](CC(N)=O)NC(=O)[C@@H](Cc3c[nH]c4ccccc34)NC(=O)[C@@H](Cc3ccc(O)cc3)NC(=O)CN3CCC(NC(=O)CN4CCN(CC(=O)O)CCN(CC(=O)O)CCN(CC(=O)O)CC4)CC3)[C@@H](C)O)(C(=O)N[C@@H](Cc3c[nH]c4ccccc34)C(N)=O)CC2)cc1F [Compound 34] ({DOTA}-[X1][dY][dW]NT[Phe(3-F)][azaGly]L[Api](Gly(N-(3-F-4-Me-benzyl)))W-NH2),< 10
3,CSCC[C@H](NC(=O)c1ccc(CNC(=O)CN2CCN(CC(=O)O)CCN(CC(=O)O)CCN(CC(=O)O)CC2)cc1)C(=O)N[C@H](C(=O)N[C@@H](CCCCNC(=O)CCCCC(=O)N[C@H](Cc1ccc(O)cc1)C(=O)N[C@H](Cc1c[nH]c2ccccc12)C(=O)N[C@@H](CC(N)=O)C(=O)N[C@H](C(=O)N[C@@H](Cc1ccccc1)C(=O)NNC(=O)N[C@@H](CC(C)C)C(=O)NC1(C(=O)N[C@@H](Cc2c[nH]c3ccccc23)C(N)=O)CCN(C(=O)CNCc2ccc(C)c(F)c2)CC1)[C@@H](C)O)C(=O)O)C(C)C [Compound 117] (X17-[dY][dW]NTF[azaGly]L[Api](Gly(N-(3-F-4-Me-benzyl)))W-NH2),< 10
4,CSCC[C@H](NC(=O)c1ccc(CNC(=O)CN2CCN(CC(=O)O)CCN(CC(=O)O)CCN(CC(=O)O)CC2)cc1)C(=O)N[C@H](C(=O)N[C@@H](CCCCNC(=O)CCCCC(=O)N[C@@H](Cc1ccccc1)C(=O)NNC(=O)N[C@@H](CC(C)C)C(=O)NC1(C(=O)N[C@@H](Cc2c[nH]c3ccccc23)C(N)=O)CCN(C(=O)CNCc2ccc(C)c(F)c2)CC1)C(=O)O)C(C)C [Compound 132],< 10
5,CSCC[C@H](NC(=O)CN1CCN(CC(=O)O)CCN(CC(=O)O)CCN(CC(=O)O)CC1)C(=O)N[C@H](C(=O)N[C@@H](CCCCNC(=O)CCCCC(=O)N[C@H](Cc1ccc(O)cc1)C(=O)N[C@H](Cc1c[nH]c2ccccc12)C(=O)N[C@@H](CC(N)=O)C(=O)N[C@H](C(=O)N[C@@H](Cc1ccccc1)C(=O)NNC(=O)N[C@@H](CC(C)C)C(=O)NC1(C(=O)N[C@@H](Cc2c[nH]c3ccccc23)C(N)=O)CCN(C(=O)CNCc2ccc(C)c(F)c2)CC1)[C@@H](C)O)C(=O)O)C(C)C [Compound 133] (X12-[dY][dW]NTF[azaGly]L[Api](Gly(N-(3-F-4-Me-benzyl)))W-NH2),< 10
6,Cc1ccc(CNCC(=O)N2CCC(NC(=O)[C@H](CC(C)C)NC(=O)NNC(=O)[C@H](Cc3ccccc3)NC(=O)CCCCCNC(=O)CN3CCN(CC(=O)O)CCN(CC(=O)O)CCN(CC(=O)O)CC3)(C(=O)N[C@@H](Cc3ccc(O)cc3)C(N)=O)CC2)cc1F [Compound 187] ({DOTA-Ahx}-F[azaGly]L[Api](Gly(N-(3-F-4-Me-benzyl)))Y-NH2),< 10
7,Cc1ccc(CNCC(=O)N2CCC(NC(=O)[C@H](CC(C)C)NC(=O)NNC(=O)[C@H](Cc3cccc(F)c3)NC(=O)[C@@H](NC(=O)[C@H](CC(N)=O)NC(=O)CC(CC(=O)O)NC(=O)CN3CCN(CC(=O)O)CCN(CC(=O)O)CCN(CC(=O)O)CC3)[C@@H](C)O)(C(=O)N[C@@H](Cc3ccncc3)C(N)=O)CC2)cc1F (stereo partly drawn) [Compound 230] ({DOTA}-[ξβ3hD]NT[Phe(3-F)][azaGly]L[Api](Gly(N-(3-F-4-Me-benzyl)))[4Pal]-NH2),10 to 100
8,Cc1ccc(CNCC(=O)N2CCC(NC(=O)[C@H](CC(C)C)NC(=O)NNC(=O)[C@H](Cc3cccc(F)c3)NC(=O)[C@@H](NC(=O)[C@H](CC(N)=O)NC(=O)CC(CC(=O)O)NC(=O)[C@H]3CC[C@H](CNC(=O)CN4CCN(CC(=O)O)CCN(CC(=O)O)CCN(CC(=O)O)CC4)CC3)[C@@H](C)O)(C(=O)N[C@@H](Cc3ccncc3)C(N)=O)CC2)cc1F (stereo partly drawn) [Compound 231] ({DOTA-Trx}-[ξβ3hD]NT[Phe(3-F)][azaGly]L[Api](Gly(N-(3-F-4-Me-benzyl)))[4Pal]-NH2),10 to 100
9,Cc1ccc(CNCC(=O)N2CCC(NC(=O)[C@H](CC(C)C)NC(=O)NNC(=O)[C@H](Cc3cccc(F)c3)NC(=O)[C@@H](NC(=O)[C@H](CC(N)=O)NC(=O)CC(CC(=O)O)NC(=O)c3ccc(CNC(=O)CN4CCN(CC(=O)O)CCN(CC(=O)O)CCN(CC(=O)O)CC4)cc3)[C@@H](C)O)(C(=O)N[C@@H](Cc3ccncc3)C(N)=O)CC2)cc1F (stereo partly drawn) [Compound 232] ({DOTA-4Amb}-[ξβ3hD]NT[Phe(3-F)][azaGly]L[Api](Gly(N-(3-F-4-Me-benzyl)))[4Pal]-NH2),< 10
10,CC(C)C[C@H](NC(=O)NNC(=O)[C@H](Cc1ccccc1)NC(=O)[C@@H](NC(=O)[C@H](CC(N)=O)NC(=O)[C@H](Cc1ccc2ccccc2c1)NC(=O)[C@@H](Cc1ccc(O)cc1)NC(=O)CN1CCN(CC(=O)O)CCN(CC(=O)O)CCN(CC(=O)O)CC1)[C@@H](C)O)C(=O)NC1(C(=O)N[C@@H](Cc2c[nH]c3ccccc23)C(N)=O)CCN(C(=N)N)CC1 [Compound 266] ({DOTA}-[dY][2Nal]NTF[azaGly]L[Api(1-amidino)]W-NH2),< 10
11,Cc1ccc(CNCC(=O)N2CCC(NC(=O)[C@H](CC(C)C)NC(=O)NNC(=O)[C@H](Cc3ccccc3)NC(=O)CCCCCNC(=O)[C@H](Cc3ccc4ccccc4c3)NC(=O)[C@@H](Cc3ccc(O)cc3)NC(=O)CNC(=O)CN3CCN(CC(=O)O)CCN(CC(=O)O)CCN(CC(=O)O)CC3)(C(=O)N[C@@H](Cc3c[nH]c4ccccc34)C(N)=O)CC2)cc1F [Compound 306] ({DOTA}-G[dY][2Nal][Ahx]F[azaGly]L[Api](Gly(N-(3-F-4-Me-benzyl)))W-NH2),< 10
12,Cc1ccc(CNCC(=O)N2CCC(NC(=O)[C@H](CC(C)C)NC(=O)NNC(=O)[C@H](Cc3ccccc3)NC(=O)[C@@H](NC(=O)[C@H](CC(N)=O)NC(=O)[C@H]3C[C@H](O)CN3C(=O)[C@@H](Cc3ccc(O)cc3)NC(=O)CCCCCNC(=O)CN3CCN(CC(=O)O)CCN(CC(=O)O)CCN(CC(=O)O)CC3)[C@@H](C)O)(C(=O)N[C@@H](Cc3c[nH]c4ccccc34)C(N)=O)CC2)cc1F [Compound 308] ({DOTA-Ahx}-[dY][dHyp]NTF[azaGly]L[Api](Gly(N-(3-F-4-Me-benzyl)))W-NH2),< 10
13,CC(C)C[C@H](NC(=O)NNC(=O)[C@H](Cc1ccccc1)NC(=O)[C@@H](NC(=O)[C@H](CC(N)=O)NC(=O)[C@H]1C[C@H](O)CN1C(=O)[C@@H](Cc1ccc(O)cc1)NC(=O)CCCCCNC(=O)CN1CCN(CC(=O)O)CCN(CC(=O)O)CCN(CC(=O)O)CC1)[C@@H](C)O)C(=O)NC1(C(=O)N[C@@H](Cc2c[nH]c3ccccc23)C(N)=O)CCN(C(=N)N)CC1 [Compound 312] ({DOTA-Ahx}-[dY][dHyp]NTF[azaGly]L[Api(1-amidino)]W-NH2),10 to 100
14,CCCCCCCC(=O)N[C@H](Cc1ccc(O)cc1)C(=O)N[C@H](CCCCNC(=O)CN1CCN(CC(=O)O)CCN(CC(=O)O)CCN(CC(=O)O)CC1)C(=O)N[C@@H](CC(N)=O)C(=O)N[C@H](C(=O)N[C@@H](Cc1ccccc1)C(=O)NNC(=O)N[C@@H](CC(C)C)C(=O)NC1(C(=O)N[C@H](Cc2c[nH]c3ccccc23)C(N)=O)CCN(C(=O)CNC)CC1)[C@@H](C)O [Compound 353] (Octanoyl-[dY][dK](DOTA)NTF[azaGly]L[Api](Sar)[dW]-NH2),< 10
15,CCCCCCCC(=O)N[C@H](Cc1ccc(O)cc1)C(=O)N[C@H](CCCCNC(=O)CN1CCN(CC(=O)O)CCN(CC(=O)O)CCN(CC(=O)O)CC1)C(=O)N[C@@H](CC(N)=O)C(=O)N[C@H](C(=O)N[C@@H](Cc1ccccc1)C(=O)NNC(=O)N[C@@H](CC(C)C)C(=O)NC1(C(=O)N[C@@H](Cc2c[nH]c3ccccc23)C(=O)O)CCN(C(=O)CNC)CC1)[C@@H](C)O [Compound 354] (Octanoyl-[dY][dK](DOTA)NTF[azaGly]L[Api](Sar)W-OH),< 10
16,Cc1ccc(CNCC(=O)N2CCC(NC(=O)[C@H](CC(C)C)NC(=O)NNC(=O)[C@H](Cc3ccccc3)NC(=O)[C@@H](NC(=O)[C@H](CC(N)=O)NC(=O)[C@H](Cc3ccc4ccccc4c3)NC(=O)[C@@H](Cc3ccc(O)cc3)NC(=O)CCCCCNC(=O)CN3CCN(CC(=O)O)CCN(CC(=O)O)CCN(CC(=O)O)CC3)[C@@H](C)O)(C(=O)N[C@@H](Cc3ccc(O)cc3)C(N)=O)CC2)cc1F [Compound 378] ({DOTA-Ahx}-[dY][2Nal]NTF[azaGly]L[Api](Gly(N-(3-F-4-Me-benzyl)))Y-NH2),< 10
